Results are given as percent effect. The record does not define 0% and 100%; most values in the screen are far below 50% and negative numbers occur (in some assays of this library far below -100). Compounds were drawn at random from those tested, without regard to their results. Two or more numbers in one place are separate tests of the same structure; such repeats can differ widely.

Toxoplasma: 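Assay of Toxoplasma gondii numbers, read through their beta-galactosidase reporter with a colour substrate. Tested at 10 µM. The record gives no direction; the compounds picked for IC50 retests had high values, so higher reads as fewer parasites. Of about 67,000 compounds tested this way, about 260 (0.38%) reached 50% or more in at least one test.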
Leishmania in macrophages: 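Cell assay of Leishmania donovani living inside macrophages; the read-out is not stated. Concentration: 30 µM. Direction is inferred from retests: higher values go with stronger inhibition. Size under these conditions: about 69,000 compounds, about 1,000 of them at 50% or above in at least one test.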

Result for Cc1ccccc1C(C(=O)NCCn1cccc1)N(C)C (centres unmarked) was Toxoplasma: 1.877%; Leishmania in macrophages: 13.38%. CCc1ccc(-n2nnc(C(=O)O)c2-c2ccncc2)cc1 read Toxoplasma: 8.766%; Leishmania in macrophages: -6.495% and 1.584%. c1cnc(Nc2cncc(C3CCCN(c4cnccn4)C3)n2)nc1 (centres unmarked) gave Toxoplasma: -2.814%; Leishmania in macrophages: -0.2136% and -6.317%. For NC(=O)c1cc(NC(=O)N2CCCCCC2)ccc1F the result was Toxoplasma: -11.8%; Leishmania in macrophages: -2.759%.

CC(=O)N1CCn2c(nnc2C2CCCCN2C(C)=O)C1 (centres unmarked) read Toxoplasma: 0.3697%; Leishmania in macrophages: 7.824%. Result for O=C(NCCn1cc(Cl)cn1)C1CCN(C(=O)C2CC2)CC1 was Toxoplasma: -7.599%; Leishmania in macrophages: -17.5%. For CCn1nc(C)c(NC(=O)c2cc(NC(=O)C3CC3)n(C)n2)c1C the result was Toxoplasma: 0.1763%; Leishmania in macrophages: -8.606%. Fc1ccc(OCCNCCn2cccn2)cc1 read Toxoplasma: -13.25%; Leishmania in macrophages: 21.07%.

Result for CC(C)N1CCc2c(C(=O)N3CCOCC3)nn(C)c2C1.O=C(O)C(F)(F)F was Toxoplasma: -9.767%; Leishmania in macrophages: 8.517%. CNc1nc2c(s1)C(c1cccc(Cl)c1Cl)CC(=O)N2 (centres unmarked) read Toxoplasma: -3.058%; Leishmania in macrophages: -12.98%. For Cc1ccc(CN(C)C(=O)CN2CCCC2Cn2cccn2)o1 (centres unmarked) the result was Toxoplasma: 0%; Leishmania in macrophages: 21.47%. Result for [H][C@]12CC[C@]([H])(CN(C(=O)c3ccc(N(C)CCO)cc3)C1)N(CCC)C2 was Toxoplasma: 2.911%; Leishmania in macrophages: -1.04%.

With Cc1ccc(CN2CCCn3c(nc(Cn4cncn4)cc3=O)C2)s1 the screen gave Toxoplasma: -6.144%; Leishmania in macrophages: 8.455%. With CS(=O)(=O)N1CCOCC2(CN(Cc3nccs3)CCO2)C1.O=C(O)C(F)(F)F (centres unmarked) the screen gave Toxoplasma: 4.289%; Leishmania in macrophages: 19.03% and 11.09%. With O=C(NC[C@H]1OC[C@@H](NC2CCC2)[C@@H]1O)Nc1ccccc1 the screen gave Toxoplasma: -8.95%; Leishmania in macrophages: -7.973%. Result for COc1c(CNCc2ccc(N(C)C)nc2)c(C)nn1C was Toxoplasma: -44.01%; Leishmania in macrophages: 22.75%.

For [H][C@]12CN(C(C)=O)CCN1C(=O)N(Cc1ccc(F)cc1)C2 the result was Toxoplasma: 14.95%; Leishmania in macrophages: 9.802%. Cc1csc(N2CCN(CC(=O)NC3CCOCC3)CC2C)n1 (centres unmarked) read Toxoplasma: 24.5%; Leishmania in macrophages: 0.2833%. Result for CCCc1cnc(C)nc1N1CCC(Cn2cc(CN(C)C)nn2)CC1 was Toxoplasma: 9.055%; Leishmania in macrophages: 16.92%. With [H][C@@]12CN(c3cc(OC)ncn3)C[C@@H](C(=O)N3CCCC3)[C@]1([H])CCO2 the screen gave Toxoplasma: 0.7396%; Leishmania in macrophages: -7.878%.

Result for COc1ccc(CC2CN(C3CCSCC3)CCO2)cc1 (centres unmarked) was Toxoplasma: -25.3%; Leishmania in macrophages: 8.97%. With CC(C)(C)c1noc(CN2CCN(C(=O)c3cccs3)CC2)n1 the screen gave Toxoplasma: 0.9529%; Leishmania in macrophages: -14.11%.

2 of the entries, repeated:

structure	Toxoplasma	Leishmania in macrophages
Cc1csc(N2CCN(CC(=O)NC3CCOCC3)CC2C)n1 (centres unmarked)	24.5	0.2833
Cc1ccc(CN(C)C(=O)CN2CCCC2Cn2cccn2)o1 (centres unmarked)	0	21.47

Data taken from ChEMBL document CHEMBL3988442, “University of Dundee, Small-Polar-MMV Screening Library” (2021).